Experimental findings from PMC6007958, “Identification, characterization and application of a new peptide against anterior gradient homolog 2 (AGR2)” (Oncotarget, 2018) are described below.

In assay [1] the target is T1, H10 peptide (biotin-…).
T1 sequence (peptide, biotin (N-Terminal)): GGGSGMKMQVRIYLV
The assay is described as follows: SPR; competition: AGR2 (500 nM) pre-incubated with free H10 or control peptide (500 nM), injected over immobilised H10; both purified.

The target of assay [2] is T1, H10 peptide (biotin-…). The assay is described as follows: cross-linking; AGR2 pre-incubated with H10 in 20 mM HEPES pH 7.5 at 25°C, DSSO cross-linking, trypsin digest, LC-MS; loss of peptide spectrum matches; both purified.
The target of assay [3] is T1, H10 peptide (biotin-…). The assay is described as follows: pull-down; H10-biotin or scrambled-biotin peptide on streptavidin magnetic beads; recombinant proteins (1-3 mg/mL) overnight at 4°C; TBS 0.1% Tween washes; SDS-PAGE/Western blot; both purified.
The target of assay [4] is T1, H10 peptide (biotin-…). The assay is described as follows: ELISA; biotinylated H10 (1 μg) on streptavidin coated plates; recombinant AGR2 4-3,000 ng/mL (wash buffer, PBS or DMEM with 10% FBS), 37°C 2 h; detected with anti-AGR2 antibody (Epitomics) and HRP secondary; both purified.

These are yes or no findings as the source states them, for the method shown. Binding can be weak; no strength is given.

As to “Δ27 AGR2 (recombinant anterior gradient protein 2 without the ER leader sequence) (from UniProt O95994)”, the binding entry with H10 peptide (biotin-…) [1], in the assay with H10 peptide (biotin-…) [2], with H10 peptide (biotin-…) [3] and with H10 peptide (biotin-…) [4] was “binds” each time.

Δ27 AGR2 A155T (from UniProt O95994): in the assay with H10 peptide (biotin-…) [4], the binding entry is listed as “binds”. With Δ27 AGR2 E60Q (from UniProt O95994), the binding result in the assay with H10 peptide (biotin-…) [4] was “binds”. On to Δ27 AGR2 E96K (from UniProt O95994), for which, in the assay with H10 peptide (biotin-…) [4], the binding result is recorded as “binds”. Same read-out and setting: as for Δ27 AGR2 Q103R (from UniProt O95994), the entry is “binds”; as for Δ27 AGR2 R148H (from UniProt O95994), “binds”; as for Δ27 AGR2 S134A (from UniProt O95994), “binds”.

As to Δ27 AGR2 T140A (from UniProt O95994), in the assay with H10 peptide (biotin-…) [4], the binding result was “binds”. With Δ41-AGR2 (human) (domain or fragment), the binding result with H10 peptide (biotin-…) [4] was “binds”.
